No constants are given. Whether binding was seen depends on the method and setting. Binding calls can cover weak binding; strength is not graded here.
Tests used:
GRXS17 (Arabidopsis) = molecular target: T1, GRXS17 (Arabidopsis) (UniProt Q9ZPH2); assay: two-hybrid; yeast AH109; DRE2 forms in pGAD-T7 (AD), GRXS17 in pGBK-T7 (BD); growth on SD-TLH medium with 1 mM 3AT (Fig 4B)
T1 sequence: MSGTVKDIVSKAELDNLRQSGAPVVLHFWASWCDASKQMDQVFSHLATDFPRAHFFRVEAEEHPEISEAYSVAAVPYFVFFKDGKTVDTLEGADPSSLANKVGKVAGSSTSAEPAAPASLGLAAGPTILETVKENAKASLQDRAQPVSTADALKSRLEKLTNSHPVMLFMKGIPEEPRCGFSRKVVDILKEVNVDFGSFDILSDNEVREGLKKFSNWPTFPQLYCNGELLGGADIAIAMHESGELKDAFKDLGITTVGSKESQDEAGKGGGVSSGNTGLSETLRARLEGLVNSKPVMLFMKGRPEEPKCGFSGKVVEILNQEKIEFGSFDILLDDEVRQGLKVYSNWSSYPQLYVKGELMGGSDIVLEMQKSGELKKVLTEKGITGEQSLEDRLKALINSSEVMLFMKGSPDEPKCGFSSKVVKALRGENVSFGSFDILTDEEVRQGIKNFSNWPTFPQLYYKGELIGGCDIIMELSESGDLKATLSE

NBP35 (Arabidopsis) = molecular target: T2, NBP35 (Arabidopsis) (UniProt Q8H1Q2); assay: two-hybrid; yeast AH109; DRE2 forms in pGAD-T7 (AD), TAH18 or NBP35 in pGBK-T7 (BD); growth on SD-TL, SD-TLH and SD-TLHA (Fig 4A)
T2 sequence: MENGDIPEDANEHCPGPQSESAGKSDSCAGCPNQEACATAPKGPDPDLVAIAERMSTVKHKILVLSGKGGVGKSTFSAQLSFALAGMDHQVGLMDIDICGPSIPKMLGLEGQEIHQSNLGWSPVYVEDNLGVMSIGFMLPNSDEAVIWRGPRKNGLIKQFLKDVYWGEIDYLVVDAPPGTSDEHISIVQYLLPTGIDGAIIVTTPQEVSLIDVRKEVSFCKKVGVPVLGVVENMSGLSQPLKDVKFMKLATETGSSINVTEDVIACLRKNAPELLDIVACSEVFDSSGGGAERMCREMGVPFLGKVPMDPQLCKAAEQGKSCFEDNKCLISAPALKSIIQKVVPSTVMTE

TAH18 = molecular target: T3, TAH18 (UniProt Q6NPS8); assay: as above
T3 sequence: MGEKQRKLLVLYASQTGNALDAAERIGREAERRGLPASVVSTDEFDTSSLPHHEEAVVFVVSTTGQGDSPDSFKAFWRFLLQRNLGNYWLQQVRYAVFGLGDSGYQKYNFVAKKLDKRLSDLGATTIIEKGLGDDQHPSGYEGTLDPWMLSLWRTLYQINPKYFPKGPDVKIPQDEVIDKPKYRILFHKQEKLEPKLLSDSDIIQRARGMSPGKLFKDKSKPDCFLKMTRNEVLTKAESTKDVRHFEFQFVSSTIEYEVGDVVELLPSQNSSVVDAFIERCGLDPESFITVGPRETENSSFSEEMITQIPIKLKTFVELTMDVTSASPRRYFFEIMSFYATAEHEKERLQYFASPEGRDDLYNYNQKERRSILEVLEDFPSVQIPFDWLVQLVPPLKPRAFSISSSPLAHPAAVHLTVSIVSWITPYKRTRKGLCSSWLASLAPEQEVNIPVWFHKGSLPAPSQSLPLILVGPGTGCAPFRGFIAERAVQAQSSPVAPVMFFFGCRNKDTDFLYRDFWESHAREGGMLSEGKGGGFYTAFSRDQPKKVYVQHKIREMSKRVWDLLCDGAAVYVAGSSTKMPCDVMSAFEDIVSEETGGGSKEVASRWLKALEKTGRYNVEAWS

| binding (GRXS17 (Arabidopsis)) | binding (NBP35 (Arabidopsis)) | binding (TAH18) | Substance |
| --- | --- | --- | --- |
| no binding | binds | binds | DRE2^Δ75 (Arabidopsis) |
| binds | – | binds | DRE2 (wild type) (Arabidopsis) |
| – | binds | binds | DRE2-3 (Arabidopsis) |
| binds | binds | binds | DRE2^Δ6 (Arabidopsis) |

Source: article PMC6508740
